Data as given in PubChem BioAssay AID504808 (Drosophila RNAi Screening Center, 2011).

Screen: 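Chromatin factors that keep E2F targets switched off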 (primary screen)
Cells: Drosophila S2 cells
Knock-down reagent: long dsRNA against Drosophila genes
Measured: 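Firefly luciferase driven by E2F sites, normalised to Renilla luciferase on the same minimal promoter, measured by plate reader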
Direction: E2F firefly: higher = more E2F reporter activity; Renilla normaliser: higher = more normaliser reporter signal
Call rule: 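Called active if the normalised E2F reporter went up by over 50%; the cutoff is arbitrary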
The deposit covers about 21,000 reagents; this is a random part of those with a known target gene and a result. Over the whole deposit, 18 (0.084%) are marked active. 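Raw counts without plate normalisation, one of two replicates; the ratio scores behind the calls were not deposited.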 Names joined by + are all predicted targets of the reagent. The record does not give: the amount of reagent, the time to read-out.

| gene | DRSC id | E2F firefly, rep 1 | Renilla normaliser, rep 1 | activity call |
| --- | --- | --- | --- | --- |
| Rift | DRSC14330 | 1.21e5 | 5535 | inactive |
| CG12402 | DRSC14508 | 1.05e5 | 5950 | inactive |
| CG5989 | DRSC10565 | 74249 | 3843 | inactive |
| CAH9 | DRSC15963 | 1.08e5 | 5183 | inactive |
| COX5B | DRSC02115 | 1.43e5 | 5071 | inactive |
| CG8607 | DRSC11012 | 97171 | 4349 | inactive |
| CG14367 | DRSC14829 | 1.12e5 | 6584 | inactive |
| CG16798 | DRSC02517 | 1.03e5 | 4400 | inactive |
| CG14221 | DRSC19578 | 1.47e5 | 6484 | inactive |
| CG14107 | DRSC10110 | 1.04e5 | 6738 | inactive |
| CG31898 | DRSC01019 | 1.33e5 | 6674 | inactive |
| CG42561 | DRSC05676 | 1.69e5 | 6105 | inactive |
| CG16972 | DRSC02550 | 87128 | 3467 | inactive |
| Mrp5 | DRSC15597 | 1.53e5 | 8398 | inactive |
| Mrp5 | DRSC15598 | 1.51e5 | 8454 | inactive |
| Srrm234 | DRSC07955 | 1.31e5 | 3984 | inactive |
| Srrm234 | DRSC08606 | 68859 | 3454 | inactive |
| alien + CG17906 | DRSC02641 | 1.67e5 | 5213 | inactive |
| CG9776 | DRSC12127 | 80561 | 3746 | inactive |
| S6KL | DRSC19349 | 1.42e5 | 5229 | inactive |
| Dcr-1 | DRSC15646 | 55085 | 3085 | inactive |
| CG32196 | DRSC09548 | 1.53e5 | 4324 | inactive |
| CG15553 | DRSC15091 | 1.20e5 | 6060 | inactive |
| CG13196 | DRSC06321 | 1.05e5 | 4137 | inactive |
| CG5793 | DRSC15874 | 1.22e5 | 6586 | inactive |
| CG12182 | DRSC08142 | 69000 | 3276 | inactive |
| Rad17 | DRSC16811 | 1.16e5 | 6252 | inactive |
| Kif19A | DRSC16576 | 47506 | 3353 | inactive |
| loj | DRSC09791 | 85661 | 4266 | inactive |
| CG1941 | DRSC06802 | 1.49e5 | 4486 | inactive |
| CG13113 | DRSC02211 | 1.70e5 | 6081 | inactive |
| bol | DRSC08964 | 1.32e5 | 5994 | inactive |
| bol | DRSC10444 | 87691 | 3525 | inactive |
| bol | DRSC11329 | 1.01e5 | 3579 | inactive |
| ouib | DRSC14376 | 1.30e5 | 6668 | inactive |
| CG32591 | DRSC19063 | 95803 | 2935 | inactive |
| CG42329 | DRSC00373 | 1.55e5 | 5445 | inactive |
| CG42329 | DRSC00682 | 1.63e5 | 5622 | inactive |
| Rpn11 | DRSC03422 | 94711 | 129 | inactive |
| CG3107 | DRSC04888 | 82633 | 3505 | inactive |
| CG4770 | DRSC15639 | 1.49e5 | 7157 | inactive |
| CG17672 | DRSC09230 | 79739 | 3429 | inactive |
| CG17672 | DRSC10278 | 81376 | 3546 | inactive |
| CG8388 | DRSC07157 | 1.50e5 | 4781 | inactive |
| mRpL33 | DRSC18319 | 1.05e5 | 5047 | inactive |
| Nup93-1 | DRSC19344 | 6791 | 676 | inactive |
| CG30043 | DRSC06285 | 93436 | 4378 | inactive |
| Ser12 | DRSC00786 | 1.63e5 | 6276 | inactive |
| CG18823 | DRSC18168 | 54255 | 6172 | inactive |
| CG8654 | DRSC07231 | 63234 | 3501 | inactive |
| resilin | DRSC05627 | 1.69e5 | 5529 | inactive |
| resilin | DRSC06595 | 1.63e5 | 5407 | inactive |
| Catsup | DRSC03288 | 1.02e5 | 4975 | inactive |
| CG11858 | DRSC14412 | 1.01e5 | 6456 | inactive |
| CG2260 | DRSC18223 | 7070 | 896 | inactive |
| zormin | DRSC07969 | 1.38e5 | 4655 | inactive |
| zormin | DRSC08210 | 88001 | 3952 | inactive |
| zormin | DRSC08212 | 1.05e5 | 5268 | inactive |
| zormin | DRSC08213 | 1.04e5 | 4656 | inactive |
| zormin | DRSC08297 | 97574 | 4789 | inactive |
| zormin | DRSC08571 | 68834 | 3343 | inactive |
| Gprk1 | DRSC20732 | 77919 | 2420 | inactive |
| Gprk1 | DRSC20916 | 87289 | 2910 | inactive |
| mRpS9 | DRSC12645 | 72715 | 2974 | inactive |
| mRpS9 | DRSC15456 | 1.57e5 | 7262 | inactive |
| snu | DRSC16589 | 2027 | 840 | inactive |
| Alg-2 | DRSC07799 | 94166 | 4830 | inactive |
| CG13962 | DRSC02304 | 84822 | 3958 | inactive |
| Polr1F | DRSC02278 | 1.04e5 | 4611 | inactive |
| l(2)k09848 | DRSC04894 | 84204 | 3882 | inactive |
| Eig71Ef | DRSC11153 | 1.63e5 | 7610 | inactive |
| CAH8 | DRSC15784 | 1.45e5 | 7214 | inactive |
| CG13937 | DRSC08406 | 55169 | 3572 | inactive |
| upd2 | DRSC19969 | 1.11e5 | 5207 | inactive |
| Nlp | DRSC16759 | 1439 | 980 | inactive |
| CG9436 | DRSC05005 | 84603 | 3438 | inactive |
| Ssk | DRSC10756 | 73936 | 3619 | inactive |
| RhoGAP102A | DRSC17110 | 84640 | 2904 | inactive |
| RhoGAP102A | DRSC17145 | 1.32e5 | 5201 | inactive |
| CG6013 | DRSC15947 | 64609 | 3724 | inactive |
| MFS1 | DRSC04115 | 1.02e5 | 4411 | inactive |
| Trpml + CG42638 | DRSC11032 | 79184 | 3628 | inactive |
| CG4577 | DRSC00658 | 1.57e5 | 6293 | inactive |
| csw | DRSC18756 | 1.28e5 | 6946 | inactive |

Sorted by “Renilla normaliser, rep 1” (high to low): 7 of the entries above
| gene | DRSC id | E2F firefly, rep 1 | Renilla normaliser, rep 1 | activity call |
| --- | --- | --- | --- | --- |
| Mrp5 | DRSC15598 | 1.51e5 | 8454 | inactive |
| Mrp5 | DRSC15597 | 1.53e5 | 8398 | inactive |
| CG42561 | DRSC05676 | 1.69e5 | 6105 | inactive |
| alien + CG17906 | DRSC02641 | 1.67e5 | 5213 | inactive |
| Srrm234 | DRSC07955 | 1.31e5 | 3984 | inactive |
| CG16972 | DRSC02550 | 87128 | 3467 | inactive |
| Srrm234 | DRSC08606 | 68859 | 3454 | inactive |
